Measurements taken from PMC12499470.
These are yes or no findings as the source states them, for the method shown. In cells and extracts the contact can be indirect. Some results given as binding are weak or reduced against the parent protein; the word gives no strength. For some of these results: Tags and fused reporters may be left off the sequences shown.

Experiments:
[1] = target: T1, PKGα-FLAG (protein kinase cGMP-dependent 1, isoform α, FLAG-tagged) (UniProt Q13976); assay: co-IP; HEK293T cells co-transfected with HA- and FLAG-tagged constructs, lysates after 48 h, immunoprecipitation with EZview Red anti-FLAG M2 affinity gel, Western blot
T1 sequence: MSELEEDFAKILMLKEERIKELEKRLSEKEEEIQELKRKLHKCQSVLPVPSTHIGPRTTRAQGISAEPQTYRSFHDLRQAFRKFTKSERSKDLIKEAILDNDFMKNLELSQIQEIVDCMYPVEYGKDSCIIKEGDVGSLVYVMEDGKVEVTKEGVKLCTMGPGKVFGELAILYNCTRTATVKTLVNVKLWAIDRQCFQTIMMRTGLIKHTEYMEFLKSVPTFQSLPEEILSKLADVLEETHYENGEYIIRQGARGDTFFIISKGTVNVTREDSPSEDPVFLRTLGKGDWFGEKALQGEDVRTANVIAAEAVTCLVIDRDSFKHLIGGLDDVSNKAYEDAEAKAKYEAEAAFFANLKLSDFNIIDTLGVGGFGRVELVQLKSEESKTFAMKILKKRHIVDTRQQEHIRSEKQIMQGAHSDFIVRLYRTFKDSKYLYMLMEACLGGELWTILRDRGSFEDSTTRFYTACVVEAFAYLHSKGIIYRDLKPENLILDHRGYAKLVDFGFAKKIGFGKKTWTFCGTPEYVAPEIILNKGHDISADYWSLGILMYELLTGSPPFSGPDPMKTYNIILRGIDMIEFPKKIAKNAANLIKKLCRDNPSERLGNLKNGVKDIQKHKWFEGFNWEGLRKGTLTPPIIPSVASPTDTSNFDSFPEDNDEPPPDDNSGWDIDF

[2] = target: T2, PKGβ-FLAG (protein kinase cGMP-dependent 1, isoform β, FLAG-tagged) (UniProt Q13976); assay: as above
T2 sequence: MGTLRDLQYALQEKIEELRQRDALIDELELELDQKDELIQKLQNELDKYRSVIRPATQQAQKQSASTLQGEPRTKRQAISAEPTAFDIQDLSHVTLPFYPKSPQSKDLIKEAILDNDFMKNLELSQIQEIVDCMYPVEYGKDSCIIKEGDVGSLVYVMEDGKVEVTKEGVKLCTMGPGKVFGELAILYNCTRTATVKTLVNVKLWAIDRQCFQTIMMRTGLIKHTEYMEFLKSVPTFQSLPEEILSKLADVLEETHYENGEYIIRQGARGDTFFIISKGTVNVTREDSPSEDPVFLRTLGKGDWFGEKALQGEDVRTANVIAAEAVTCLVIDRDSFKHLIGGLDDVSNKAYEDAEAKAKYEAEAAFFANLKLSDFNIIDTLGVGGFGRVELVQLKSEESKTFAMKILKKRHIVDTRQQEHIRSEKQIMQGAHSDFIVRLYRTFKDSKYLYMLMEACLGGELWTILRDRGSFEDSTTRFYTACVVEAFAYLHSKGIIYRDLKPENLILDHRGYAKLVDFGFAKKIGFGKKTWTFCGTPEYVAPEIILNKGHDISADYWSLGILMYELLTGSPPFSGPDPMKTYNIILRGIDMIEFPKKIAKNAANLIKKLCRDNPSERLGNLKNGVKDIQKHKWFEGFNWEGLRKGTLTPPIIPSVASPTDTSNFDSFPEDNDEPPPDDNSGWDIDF

[3] = target: T3, HSL-FLAG (hormone-sensitive lipase, FLAG-tagged) (human) (UniProt Q05469); assay: as above
T3 sequence: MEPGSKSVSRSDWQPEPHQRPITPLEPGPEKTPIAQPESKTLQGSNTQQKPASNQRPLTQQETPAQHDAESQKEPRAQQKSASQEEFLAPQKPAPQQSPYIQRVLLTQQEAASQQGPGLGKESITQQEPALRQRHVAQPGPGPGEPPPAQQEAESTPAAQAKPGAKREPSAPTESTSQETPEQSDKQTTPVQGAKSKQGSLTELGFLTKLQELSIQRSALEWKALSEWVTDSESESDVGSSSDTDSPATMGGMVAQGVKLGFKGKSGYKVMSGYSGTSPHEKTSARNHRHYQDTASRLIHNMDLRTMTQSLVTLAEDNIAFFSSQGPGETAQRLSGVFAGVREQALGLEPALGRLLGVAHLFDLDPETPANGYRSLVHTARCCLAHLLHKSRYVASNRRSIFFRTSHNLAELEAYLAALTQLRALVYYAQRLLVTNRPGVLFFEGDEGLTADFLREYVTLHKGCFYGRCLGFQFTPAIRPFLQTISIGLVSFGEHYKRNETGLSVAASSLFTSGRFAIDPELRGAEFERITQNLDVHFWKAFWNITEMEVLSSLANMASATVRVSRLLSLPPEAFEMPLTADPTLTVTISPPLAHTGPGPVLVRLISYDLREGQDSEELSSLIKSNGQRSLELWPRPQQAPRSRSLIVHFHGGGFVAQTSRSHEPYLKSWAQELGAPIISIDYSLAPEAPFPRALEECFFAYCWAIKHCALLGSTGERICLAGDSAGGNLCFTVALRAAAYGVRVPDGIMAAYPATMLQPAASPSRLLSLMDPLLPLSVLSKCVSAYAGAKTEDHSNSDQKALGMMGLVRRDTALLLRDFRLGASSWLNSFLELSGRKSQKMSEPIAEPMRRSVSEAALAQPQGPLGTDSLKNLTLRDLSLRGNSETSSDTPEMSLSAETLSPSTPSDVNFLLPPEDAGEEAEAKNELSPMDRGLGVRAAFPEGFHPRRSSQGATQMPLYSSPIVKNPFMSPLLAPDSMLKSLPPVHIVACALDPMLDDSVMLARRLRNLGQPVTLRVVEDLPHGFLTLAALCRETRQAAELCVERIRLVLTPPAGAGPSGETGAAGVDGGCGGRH

[4] = target: T4, endogenous HSL (hormone-sensitive lipase) (human (endogenous in MGC803 and MKN1)) (UniProt Q05469); assay: co-IP; endogenous proteins; MKN1 and MGC803 cells treated with cGMP (100 µM) for 15 min before harvest; immunoprecipitation with target antibody
T4 sequence: T3 sequence

B1: HSL-HA (hormone-sensitive lipase, HA-tagged) (enzyme, UniProt Q05469 1-1076)
chain: T3 sequence
For B1, the binding [1] was “binds” and the binding [2] was “binds”.

B2: PKGβ-HA (protein kinase cGMP-dependent 1, isoform β, HA-tagged) (enzyme, UniProt Q13976-2 1-686)
chain: T2 sequence
In the case of B2, the binding [3] is reported as “binds”.

B3: endogenous PKGα (enzyme, UniProt Q13976 1-671)
chain: T1 sequence
With B3 the binding [4] was “binds”.
